Compound in this assay: CC1Cc2ccccc2N1C(=O)C1CCCN(C1)C(=O)CCl (mixture of isomers) [TRIM25 ligand 11 (diastereomer mixture)]
Kind of assay: probe-labelled cysteine peptide fold change vs DMSO (competition) (log2 fold change); higher = less target engagement (more negative = stronger competition). The note with it: THP-1, incubation time: 4 h.

Sequences of proteins named here, by UniProt entry; tags and fusion partners are left off. A change or cut given only in a name is not applied to a line headed by its entry.
UniProt Q86U38: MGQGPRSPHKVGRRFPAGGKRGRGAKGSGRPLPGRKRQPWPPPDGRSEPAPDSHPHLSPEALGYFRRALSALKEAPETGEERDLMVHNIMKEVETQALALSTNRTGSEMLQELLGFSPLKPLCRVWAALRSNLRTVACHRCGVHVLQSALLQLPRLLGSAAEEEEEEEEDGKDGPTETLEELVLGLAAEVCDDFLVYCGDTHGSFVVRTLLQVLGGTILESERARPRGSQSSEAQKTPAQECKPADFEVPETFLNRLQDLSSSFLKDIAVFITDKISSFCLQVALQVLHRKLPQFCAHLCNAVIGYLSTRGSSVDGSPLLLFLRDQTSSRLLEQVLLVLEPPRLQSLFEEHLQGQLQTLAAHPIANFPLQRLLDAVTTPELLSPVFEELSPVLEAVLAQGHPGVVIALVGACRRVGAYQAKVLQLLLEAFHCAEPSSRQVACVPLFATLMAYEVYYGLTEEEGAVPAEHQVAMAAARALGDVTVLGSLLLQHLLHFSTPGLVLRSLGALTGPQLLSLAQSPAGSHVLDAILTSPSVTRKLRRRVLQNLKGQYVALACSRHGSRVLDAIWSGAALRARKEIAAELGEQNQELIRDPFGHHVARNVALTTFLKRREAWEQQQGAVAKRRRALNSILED
UniProt Q96CB9: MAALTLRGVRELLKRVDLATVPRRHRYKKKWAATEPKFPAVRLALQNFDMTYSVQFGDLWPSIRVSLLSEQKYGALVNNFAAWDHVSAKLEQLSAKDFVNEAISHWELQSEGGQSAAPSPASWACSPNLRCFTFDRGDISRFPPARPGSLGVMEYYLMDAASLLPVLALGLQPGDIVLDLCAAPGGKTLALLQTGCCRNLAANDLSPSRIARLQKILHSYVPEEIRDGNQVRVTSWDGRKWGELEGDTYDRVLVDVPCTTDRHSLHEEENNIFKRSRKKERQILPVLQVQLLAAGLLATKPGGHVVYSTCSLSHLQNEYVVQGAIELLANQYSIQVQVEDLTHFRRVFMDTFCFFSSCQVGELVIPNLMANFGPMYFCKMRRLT
UniProt O43847: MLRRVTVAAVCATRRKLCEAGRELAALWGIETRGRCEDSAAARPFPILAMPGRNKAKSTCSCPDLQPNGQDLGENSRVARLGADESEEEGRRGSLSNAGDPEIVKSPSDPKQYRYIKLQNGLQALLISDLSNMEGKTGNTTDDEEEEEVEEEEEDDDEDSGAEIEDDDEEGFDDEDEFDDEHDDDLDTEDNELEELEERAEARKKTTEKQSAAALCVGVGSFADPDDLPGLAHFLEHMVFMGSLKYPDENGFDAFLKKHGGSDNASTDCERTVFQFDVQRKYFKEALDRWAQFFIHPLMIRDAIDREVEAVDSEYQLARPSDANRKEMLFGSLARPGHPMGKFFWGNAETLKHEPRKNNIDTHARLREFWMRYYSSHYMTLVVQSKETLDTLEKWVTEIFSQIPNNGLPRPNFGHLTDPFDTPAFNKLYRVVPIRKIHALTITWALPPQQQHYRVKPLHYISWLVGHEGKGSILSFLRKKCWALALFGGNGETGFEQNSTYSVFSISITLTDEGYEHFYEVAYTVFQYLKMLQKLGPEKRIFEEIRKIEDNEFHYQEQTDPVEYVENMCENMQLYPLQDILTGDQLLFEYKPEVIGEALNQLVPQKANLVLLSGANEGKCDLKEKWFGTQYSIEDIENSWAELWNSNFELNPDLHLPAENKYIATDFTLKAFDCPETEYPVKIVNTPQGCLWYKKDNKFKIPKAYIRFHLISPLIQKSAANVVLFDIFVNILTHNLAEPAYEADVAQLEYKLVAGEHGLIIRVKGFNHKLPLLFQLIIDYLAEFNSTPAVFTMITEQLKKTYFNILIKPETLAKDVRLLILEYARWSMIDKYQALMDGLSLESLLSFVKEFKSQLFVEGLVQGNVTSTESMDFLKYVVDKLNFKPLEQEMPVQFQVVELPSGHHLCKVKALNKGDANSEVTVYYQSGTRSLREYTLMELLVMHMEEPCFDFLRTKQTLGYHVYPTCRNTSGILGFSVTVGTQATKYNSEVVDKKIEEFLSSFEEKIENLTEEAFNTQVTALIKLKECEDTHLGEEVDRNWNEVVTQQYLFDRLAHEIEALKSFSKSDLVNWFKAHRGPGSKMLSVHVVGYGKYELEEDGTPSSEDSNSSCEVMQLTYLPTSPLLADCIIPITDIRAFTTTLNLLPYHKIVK
UniProt Q9BVI4: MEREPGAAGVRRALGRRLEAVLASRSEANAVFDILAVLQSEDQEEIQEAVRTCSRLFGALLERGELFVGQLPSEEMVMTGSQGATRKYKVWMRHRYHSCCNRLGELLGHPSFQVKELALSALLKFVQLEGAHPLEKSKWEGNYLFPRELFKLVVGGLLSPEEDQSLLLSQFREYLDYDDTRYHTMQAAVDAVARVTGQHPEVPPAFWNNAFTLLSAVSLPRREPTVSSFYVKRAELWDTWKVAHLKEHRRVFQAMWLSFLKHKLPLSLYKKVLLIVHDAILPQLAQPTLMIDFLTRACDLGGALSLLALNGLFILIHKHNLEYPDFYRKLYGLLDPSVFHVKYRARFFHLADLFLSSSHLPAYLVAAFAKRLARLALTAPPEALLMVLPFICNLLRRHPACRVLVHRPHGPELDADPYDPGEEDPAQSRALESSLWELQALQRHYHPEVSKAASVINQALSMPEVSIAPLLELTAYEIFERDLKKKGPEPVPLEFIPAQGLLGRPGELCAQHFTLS
UniProt Q5SY16: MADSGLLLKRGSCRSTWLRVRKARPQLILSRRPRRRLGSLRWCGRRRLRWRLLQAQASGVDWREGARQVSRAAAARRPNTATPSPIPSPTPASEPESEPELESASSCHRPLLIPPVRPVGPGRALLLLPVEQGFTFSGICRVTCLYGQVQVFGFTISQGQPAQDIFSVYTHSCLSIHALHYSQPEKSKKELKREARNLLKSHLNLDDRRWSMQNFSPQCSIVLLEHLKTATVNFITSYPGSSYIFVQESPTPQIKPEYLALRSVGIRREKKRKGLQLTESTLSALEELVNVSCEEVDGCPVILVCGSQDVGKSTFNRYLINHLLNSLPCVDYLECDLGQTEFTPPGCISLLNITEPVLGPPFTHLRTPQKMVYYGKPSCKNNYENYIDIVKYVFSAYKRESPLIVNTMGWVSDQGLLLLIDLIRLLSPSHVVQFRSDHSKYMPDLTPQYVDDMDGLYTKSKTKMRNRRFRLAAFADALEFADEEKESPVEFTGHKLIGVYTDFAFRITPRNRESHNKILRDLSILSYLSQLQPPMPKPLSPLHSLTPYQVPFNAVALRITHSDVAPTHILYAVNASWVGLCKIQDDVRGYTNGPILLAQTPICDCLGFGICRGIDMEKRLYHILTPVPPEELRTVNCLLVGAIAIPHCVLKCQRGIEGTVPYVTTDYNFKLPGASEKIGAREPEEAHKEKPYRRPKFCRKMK
UniProt O96028: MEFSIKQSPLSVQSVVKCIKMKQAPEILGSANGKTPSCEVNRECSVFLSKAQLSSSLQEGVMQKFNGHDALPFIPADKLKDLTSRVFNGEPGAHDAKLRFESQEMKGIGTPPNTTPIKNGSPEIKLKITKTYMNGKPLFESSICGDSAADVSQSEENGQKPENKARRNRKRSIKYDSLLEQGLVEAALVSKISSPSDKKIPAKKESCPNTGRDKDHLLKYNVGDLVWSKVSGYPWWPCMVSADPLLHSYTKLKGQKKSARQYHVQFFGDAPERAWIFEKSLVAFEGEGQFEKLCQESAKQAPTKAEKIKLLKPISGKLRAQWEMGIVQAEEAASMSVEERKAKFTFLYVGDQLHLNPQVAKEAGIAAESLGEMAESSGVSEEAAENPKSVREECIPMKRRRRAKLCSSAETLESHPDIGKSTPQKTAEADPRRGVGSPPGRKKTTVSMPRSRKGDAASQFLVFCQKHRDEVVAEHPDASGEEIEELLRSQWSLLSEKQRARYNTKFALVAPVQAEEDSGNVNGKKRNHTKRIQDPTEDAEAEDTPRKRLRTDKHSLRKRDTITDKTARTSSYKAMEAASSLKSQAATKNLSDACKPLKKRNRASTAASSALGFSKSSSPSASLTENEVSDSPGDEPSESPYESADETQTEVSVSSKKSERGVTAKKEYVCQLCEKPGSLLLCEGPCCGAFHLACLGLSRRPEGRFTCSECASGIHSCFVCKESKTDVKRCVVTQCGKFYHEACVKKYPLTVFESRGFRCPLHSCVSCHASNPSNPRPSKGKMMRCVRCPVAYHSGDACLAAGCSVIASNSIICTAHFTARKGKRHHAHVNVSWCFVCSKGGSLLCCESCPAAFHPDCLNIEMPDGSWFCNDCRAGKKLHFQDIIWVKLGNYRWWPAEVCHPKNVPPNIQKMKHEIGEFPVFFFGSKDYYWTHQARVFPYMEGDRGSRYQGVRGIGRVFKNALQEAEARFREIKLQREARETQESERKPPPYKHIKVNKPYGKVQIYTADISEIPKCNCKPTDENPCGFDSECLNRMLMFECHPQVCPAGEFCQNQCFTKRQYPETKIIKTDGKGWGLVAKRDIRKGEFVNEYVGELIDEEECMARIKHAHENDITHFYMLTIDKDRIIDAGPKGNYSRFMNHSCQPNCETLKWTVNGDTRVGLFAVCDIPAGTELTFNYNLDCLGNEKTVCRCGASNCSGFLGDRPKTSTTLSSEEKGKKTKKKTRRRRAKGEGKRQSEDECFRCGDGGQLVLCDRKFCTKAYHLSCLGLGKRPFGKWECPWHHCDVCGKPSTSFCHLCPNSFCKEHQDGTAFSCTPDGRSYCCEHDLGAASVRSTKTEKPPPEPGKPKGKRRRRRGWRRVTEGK
UniProt Q86UT6, whole entry, looked up: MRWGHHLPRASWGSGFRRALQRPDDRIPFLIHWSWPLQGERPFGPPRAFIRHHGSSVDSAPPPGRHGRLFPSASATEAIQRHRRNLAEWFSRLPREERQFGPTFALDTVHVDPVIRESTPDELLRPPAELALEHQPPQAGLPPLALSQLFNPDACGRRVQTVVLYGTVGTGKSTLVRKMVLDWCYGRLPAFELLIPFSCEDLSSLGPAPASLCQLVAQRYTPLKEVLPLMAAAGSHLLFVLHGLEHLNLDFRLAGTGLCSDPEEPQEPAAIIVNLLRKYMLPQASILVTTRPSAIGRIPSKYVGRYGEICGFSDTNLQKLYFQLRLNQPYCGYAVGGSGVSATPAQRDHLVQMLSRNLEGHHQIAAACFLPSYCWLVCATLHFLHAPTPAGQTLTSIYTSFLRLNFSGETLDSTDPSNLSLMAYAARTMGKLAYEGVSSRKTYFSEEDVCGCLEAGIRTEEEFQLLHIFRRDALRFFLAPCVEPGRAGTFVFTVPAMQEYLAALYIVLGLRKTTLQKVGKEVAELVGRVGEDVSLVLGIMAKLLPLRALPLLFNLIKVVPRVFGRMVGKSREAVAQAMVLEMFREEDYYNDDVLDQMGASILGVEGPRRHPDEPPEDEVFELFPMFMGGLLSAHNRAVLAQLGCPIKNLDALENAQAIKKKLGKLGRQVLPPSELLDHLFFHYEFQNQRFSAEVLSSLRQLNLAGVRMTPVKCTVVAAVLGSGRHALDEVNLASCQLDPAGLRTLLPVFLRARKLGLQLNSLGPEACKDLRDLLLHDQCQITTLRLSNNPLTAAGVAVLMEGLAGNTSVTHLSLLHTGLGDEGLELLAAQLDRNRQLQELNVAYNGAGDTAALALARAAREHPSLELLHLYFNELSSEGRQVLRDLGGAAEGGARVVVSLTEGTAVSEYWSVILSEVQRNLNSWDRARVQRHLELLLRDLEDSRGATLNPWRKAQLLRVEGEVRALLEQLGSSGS
UniProt P46087: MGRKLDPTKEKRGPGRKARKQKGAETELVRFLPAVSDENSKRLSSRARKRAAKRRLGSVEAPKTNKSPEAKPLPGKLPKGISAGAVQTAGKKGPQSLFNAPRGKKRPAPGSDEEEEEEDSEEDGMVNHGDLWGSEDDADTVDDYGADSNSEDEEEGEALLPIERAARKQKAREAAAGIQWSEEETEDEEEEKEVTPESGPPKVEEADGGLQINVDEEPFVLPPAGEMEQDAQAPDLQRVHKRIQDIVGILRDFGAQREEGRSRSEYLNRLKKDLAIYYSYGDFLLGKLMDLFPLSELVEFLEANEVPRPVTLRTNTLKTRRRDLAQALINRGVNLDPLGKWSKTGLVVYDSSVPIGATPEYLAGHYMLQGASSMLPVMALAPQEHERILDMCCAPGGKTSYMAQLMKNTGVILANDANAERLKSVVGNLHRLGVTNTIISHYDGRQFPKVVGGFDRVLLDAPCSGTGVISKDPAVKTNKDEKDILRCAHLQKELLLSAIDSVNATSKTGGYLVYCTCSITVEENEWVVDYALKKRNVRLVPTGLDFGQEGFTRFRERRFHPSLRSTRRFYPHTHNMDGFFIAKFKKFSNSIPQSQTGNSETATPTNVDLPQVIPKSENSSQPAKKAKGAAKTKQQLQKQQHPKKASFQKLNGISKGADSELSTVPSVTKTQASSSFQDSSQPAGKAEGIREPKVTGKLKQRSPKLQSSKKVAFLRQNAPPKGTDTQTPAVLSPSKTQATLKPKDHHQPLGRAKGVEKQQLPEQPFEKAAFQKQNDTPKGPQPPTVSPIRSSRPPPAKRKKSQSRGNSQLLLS

The list shows a part of the results.
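Further: competitive chemoproteomic profiling in live THP-1 cells with an iodoacetamide desthiobiotin (IA-DTB) probe, comparing probe-labelled peptide intensities in compound-treated cells against DMSO-treated controls.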

Consider “NOP9_Q86U38_242_TPAQECKPADFEVPETFLNR (UniProt Q86U38)”, for which the “probe-labelled cysteine peptide fold change” value reads like this: (10 µM) 0.0762; (50 µM) 0.0449.

As for “NSUN4_Q96CB9_197_TLALLQTGCCR (UniProt Q96CB9)”, the “probe-labelled cysteine peptide fold change” value (10 µM) is 0.0618 and the “probe-labelled cysteine peptide fold change” value (50 µM) was -0.126.

In the case of “NSUN6_Q8TEA1_242_ILDLCAAPGGK (UniProt Q8TEA1)”, the “probe-labelled cysteine peptide fold change” value was 0.157 (10 µM) and -0.0703 (50 µM).

In the case of “NRDC_O43847_906_LNFKPLEQEMPVQFQVVELPSGHHLCK (UniProt O43847)”, the “probe-labelled cysteine peptide fold change” value (10 µM) was 0.114 and the “probe-labelled cysteine peptide fold change” value (50 µM) came to 0.0532.

Consider “NSMCE2_Q96MF7_215_AYCPQIGCSHTDIR (UniProt Q96MF7)”, for which the “probe-labelled cysteine peptide fold change” value is 0.171 (10 µM) and -0.112 (50 µM).

Take “NOSIP_Q9Y314_185_TVTCPMSGKPLR (UniProt Q9Y314)”: the “probe-labelled cysteine peptide fold change” value is, setting by setting: (10 µM) -0.216; (50 µM) -0.237.

Take “NSUN2_Q08J23_758_AGEPNSPDAEEANSPDVTAGCDPAGVHPPR (UniProt Q08J23)”: the “probe-labelled cysteine peptide fold change” value reads like this: (10 µM) -0.154; (50 µM) -0.0972.

In the case of “NOC4L_Q9BVI4_99_YHSCCNR (UniProt Q9BVI4)”, the “probe-labelled cysteine peptide fold change” value was 0.22 (10 µM) and 0.205 (50 µM).

With “NMI_Q13287_230_EYPLYINQTCHR (UniProt Q13287)”, the “probe-labelled cysteine peptide fold change” value was 0.0387 (10 µM) and -0.0395 (50 µM).

Consider “NSD1_Q96L73_2072_CGAPNCSGFLGVRPK (UniProt Q96L73)”, for which the “probe-labelled cysteine peptide fold change” value by setting is: (10 µM) -0.0879; (50 µM) 0.0692.

Consider “NSMAF_Q92636_803+809_EGTVNIWDLTTATLMHQIPCHSGIVCDTAFSPDSR (UniProt Q92636)”, for which the “probe-labelled cysteine peptide fold change” value is -0.00486 (10 µM) and -0.0727 (50 µM).

For NKAP_Q8N5F7_47_SHSCSR (UniProt Q8N5F7), the “probe-labelled cysteine peptide fold change” value reads like this: (10 µM) 0.0491; (50 µM) 0.0658.

For “NMD3_Q96D46_321_QLEEFIVMECSIVQDIKR (UniProt Q96D46)”, the “probe-labelled cysteine peptide fold change” value is, setting by setting: (10 µM) 0.0388; (50 µM) 0.118.

In the case of “NRDE2_Q9H7Z3_608_QTEEDCEDPER (UniProt Q9H7Z3)”, the “probe-labelled cysteine peptide fold change” value was 0.125 (10 µM) and -0.113 (50 µM).

Turning to “NOL9_Q5SY16_648_TVNCLLVGAIAIPHCVLK (UniProt Q5SY16)”, the “probe-labelled cysteine peptide fold change” value is -0.129 (10 µM) and -0.0258 (50 µM).

For the target “NSD2_O96028_44_ECSVFLSK (UniProt O96028)”, the “probe-labelled cysteine peptide fold change” value runs as follows: (10 µM) 0.159; (50 µM) -0.142.

With “NRDC_O43847_1027_LKECEDTHLGEEVDRNWNEVVTQQYLFDR (UniProt O43847)”, the “probe-labelled cysteine peptide fold change” value is, setting by setting: (10 µM) -0.368; (50 µM) -0.204.

With “NSD2_O96028_1323+1324_SYCCEHDLGAASVR (UniProt O96028)”, the “probe-labelled cysteine peptide fold change” value runs as follows: (10 µM) 0.0302; (50 µM) -0.263.

Turning to “NT5C3B_Q969T7_73_IISEECR (UniProt Q969T7)”, the “probe-labelled cysteine peptide fold change” value reads like this: (10 µM) 0.19; (50 µM) 0.152.

For the target “NLRP2_Q9NX02_692_SQDDQHMLPFWTDLCSIFGSNK (UniProt Q9NX02)”, the “probe-labelled cysteine peptide fold change” value reads like this: (10 µM) -0.0737; (50 µM) -0.189.

In the case of “NSD2_O96028_38_TPSCEVNR (UniProt O96028)”, the “probe-labelled cysteine peptide fold change” value (10 µM) amounted to 0.0182 and the “probe-labelled cysteine peptide fold change” value (50 µM) was -0.139.

On to “NT5C3A_Q9H0P0_73_VEEIICGLIK (UniProt Q9H0P0)”, for which the “probe-labelled cysteine peptide fold change” value reads like this: (10 µM) 0.0967; (50 µM) -0.154.

As for “NSMAF_Q92636_158_ASCLDK (UniProt Q92636)”, the “probe-labelled cysteine peptide fold change” value stood at 0.119 (10 µM) and 0.131 (50 µM).

For the target “NSUN2_Q08J23_271_ILCDVPCSGDGTMR (UniProt Q08J23)”, the “probe-labelled cysteine peptide fold change” value (10 µM) stood at 0.00478 and the “probe-labelled cysteine peptide fold change” value (50 µM) is -0.00859.

On to “NLRX1_Q86UT6_713_CTVVAAVLGSGR (UniProt Q86UT6)”, for which the “probe-labelled cysteine peptide fold change” value is -0.136 (10 µM) and 0.223 (50 µM).

In the case of “NPAT_Q14207_50_EYAEHCTDEGFIPACLLSLFGK (UniProt Q14207)”, the “probe-labelled cysteine peptide fold change” value (10 µM) was found to be 0.194 and the “probe-labelled cysteine peptide fold change” value (50 µM) was -0.21.

With “NOTCH1_P46531_1295_VNDFHCECR (UniProt P46531)”, the “probe-labelled cysteine peptide fold change” value (10 µM) was -0.0731 and the “probe-labelled cysteine peptide fold change” value (50 µM) is -0.0244.

For the target “NLRX1_Q86UT6_644_AVLAQLGCPIK (UniProt Q86UT6)”, the “probe-labelled cysteine peptide fold change” value (10 µM) is -0.0132 and the “probe-labelled cysteine peptide fold change” value (50 µM) was found to be 0.00874.

On to “NR2C2_P49116_153_NLTYSCR (UniProt P49116)”, for which the “probe-labelled cysteine peptide fold change” value is 0.108 (10 µM) and 0.165 (50 µM).

As to “NSUN2_Q08J23_93_EILHCLK (UniProt Q08J23)”, the “probe-labelled cysteine peptide fold change” value is, setting by setting: (10 µM) 0.0809; (50 µM) 0.0592.

For the target NOP2_P46087_487_CAHLQK (UniProt P46087), the “probe-labelled cysteine peptide fold change” value is, setting by setting: (10 µM) -0.00715; (50 µM) 0.0465.

“NKTR_P30414_41_NFLCLCSGEK (UniProt P30414)”: the “probe-labelled cysteine peptide fold change” value runs as follows: (10 µM) -0.181; (50 µM) -0.0383.

Regarding “NOP10_Q9NPE3_28_FDPMGQQTCSAHPAR (UniProt Q9NPE3)”, the “probe-labelled cysteine peptide fold change” value is, setting by setting: (10 µM) -0.0449; (50 µM) -0.218.

Take “NOCT_Q9UK39_165_DNFVQCPVEALKWEER (UniProt Q9UK39)”: the “probe-labelled cysteine peptide fold change” value is, setting by setting: (10 µM) -0.00173; (50 µM) -0.4.

In the case of “NMD3_Q96D46_383_THLGHLLNPGDLVLGFDLANCNLNDEHVNK (UniProt Q96D46)”, the “probe-labelled cysteine peptide fold change” value was -0.0379 (10 µM) and -0.171 (50 µM).

For “NOC4L_Q9BVI4_100_HRYHSCCNR (UniProt Q9BVI4)”, the “probe-labelled cysteine peptide fold change” value was -0.154 (10 µM) and -0.136 (50 µM).

For the target NOP9_Q86U38_138_TVACHR (UniProt Q86U38), the “probe-labelled cysteine peptide fold change” value (10 µM) is 0.12 and the “probe-labelled cysteine peptide fold change” value (50 µM) is 0.201.

For “NOL9_Q5SY16_140_ALLLLPVEQGFTFSGICR (UniProt Q5SY16)”, the “probe-labelled cysteine peptide fold change” value was -0.058 (10 µM) and -0.376 (50 µM).

For the target “NOP2_P46087_463_VLLDAPCSGTGVISK (UniProt P46087)”, the “probe-labelled cysteine peptide fold change” value is 0.0346 (10 µM) and -0.0126 (50 µM).

Turning to “NKRF_O15226_424_SSQCHTGSSPR (UniProt O15226)”, the “probe-labelled cysteine peptide fold change” value is 0.0529 (10 µM) and -0.328 (50 µM).

With “NSD2_O96028_1198_CGASNCSGFLGDRPK (UniProt O96028)”, the “probe-labelled cysteine peptide fold change” value runs as follows: (10 µM) 0.00758; (50 µM) -0.0116.
